Data published in EP2659887A1, “Use of A-ring aromatic acetyl minocycline and pharmaceutical preparations derived from same for treatment and prevention of inflammation, autoimmune disorders and rejection of transplants” (priority 2012, dated 2013).
For at least one compound, name, drawing or mass did not settle the structure.

Assays:
humane T-Lymphozyten = test: Proliferation (DNA synthesis, 3H-thymidine incorporation) of stimulated human T lymphocytes; assay type: cell-based; settings: PWM (2 µg/ml) or anti-CD3 (OKT3) stimulation, 72 h; in the tested concentration range
From the text: In in vitro-Untersuchungen dienten humane T-Lymphozyten des peripheren Blutes gesunder Spender zur Testung der immunmodulatorischen/immunsuppressiven Wirkung der Testsubstanzen. Eine gesteigerte Zellteilung/Proliferation dieser Immunzellen nach Stimulation simuliert in vitro eine Entzündungsreaktion. Eine Verringerung dieser stimulierten Proliferation durch applizierte Substanzen veranschaulicht deren immunmodulatorischen/immunsuppressiven Eigenschaften.

[1] = tested on: Splenozyten (Milzzellen) von SJL/J-Mäusen; test: Proliferation (DNA synthesis, 3H-thymidine incorporation) of stimulated mouse splenocytes; assay type: cell-based, Maus; settings: 2,5 bzw. 5,0 µM; PWM (1 µg/ml) or anti-CD3 (145-2C11) stimulation, 72 h
Description: In weiteren in vitro-Untersuchungen dienten Splenozyten (Milzzellen) von SJL/J-Mäusen zur Testung der immunmodulatorischen/immunsuppressiven Wirkung der Testsubstanzen. Nach Stimulation der Splenozyten mit Pokeweed-Mitogen (PWM, 1 μg/ml) oder mit […] (Klon 145-2C11, BD Biosciences) erfolgte die Inkubation dieser Immunzellen in An- oder Abwesenheit verschiedener Konzentrationen von Minocyclin und Pentaacetylcyclin. Die anschließende Proliferation (DNS-Synthese) der Zellen wurde nach 72 Stunden über den Einbau von […]-Blue® Cell Viability-Assays (Promega).

[2] = tested on: Splenozyten (Milzzellen) der SJL/J-Mäuse; test: Cytokine release of PWM-stimulated mouse splenocytes (ELISA of culture supernatants); assay type: cell-based, Maus; settings: PWM 1 µg/ml, 48 h; in the tested concentration range
Description: Zur Verifizierung der an humanen […] in vitro-Untersuchungen an Splenozyten (Milzzellen) der SJL/J-Mäuse. Diese Splenozyten von wurden mit Pokeweed-Mitogen (PWM, 1 μg/ml) stimuliert und in An- oder Abwesenheit verschiedener Konzentrationen von Minocyclin und Pentaacetylcyclin inkubiert. Nach 48 Stunden erfolgte die Analyse der Zellkulturüberstände hinsichtlich der Freisetzung der Zytokine Interferon-y (IFN-y) und Interleukin-17 (IL-17) mittels spezifischer ELISA (R&D Systems).

[3] = tested on: Experimentelle Autoimmune Enzephalomyelitis (EAE); test: Experimental autoimmune encephalomyelitis (EAE) mouse model of multiple sclerosis, therapeutic treatment, EAE score; assay type: in vivo, SJL/J-Maus; settings: oral, 100 µg/Tag, Tag 14 bis Tag 22, therapeutic

CN(C)c1ccc(O)c2c1C[C@H]1C[C@H]3[C@H](N(C)C)C(O)=C(C(N)=O)C(=O)[C@@]3(O)C(O)=C1C2=O [Minocyclin]
Einfluss auf die Proliferation (DNS-Synthese) (humane T-Lymphozyten): keinen signifikanten Einfluss | Proliferation (DNS-Synthese) stimulierter Splenozyten [1]: keinerlei Wirkung | Einfluss auf die Zytokinproduktion (IFN-γ) [2]: keinen Einfluss | Einfluss auf die Zytokinproduktion (IL-17) [2]: keinen Einfluss | Einfluss auf die akute Phase der EAE (EAE-Score) [3]: signifikanten Einfluss
